Measured values reported in paper doi:10.1101/2022.02.03.479028.
No constants are given. Whether binding was seen depends on the method and setting. Binding seen in cells or lysates may run through a third protein. Some binding calls cover weakened binding; strength is not graded here. Sequences can lack the tags named with a protein.

Chains of the proteins cited; added tags and fusions are not shown.
UniProt Q6P1M0: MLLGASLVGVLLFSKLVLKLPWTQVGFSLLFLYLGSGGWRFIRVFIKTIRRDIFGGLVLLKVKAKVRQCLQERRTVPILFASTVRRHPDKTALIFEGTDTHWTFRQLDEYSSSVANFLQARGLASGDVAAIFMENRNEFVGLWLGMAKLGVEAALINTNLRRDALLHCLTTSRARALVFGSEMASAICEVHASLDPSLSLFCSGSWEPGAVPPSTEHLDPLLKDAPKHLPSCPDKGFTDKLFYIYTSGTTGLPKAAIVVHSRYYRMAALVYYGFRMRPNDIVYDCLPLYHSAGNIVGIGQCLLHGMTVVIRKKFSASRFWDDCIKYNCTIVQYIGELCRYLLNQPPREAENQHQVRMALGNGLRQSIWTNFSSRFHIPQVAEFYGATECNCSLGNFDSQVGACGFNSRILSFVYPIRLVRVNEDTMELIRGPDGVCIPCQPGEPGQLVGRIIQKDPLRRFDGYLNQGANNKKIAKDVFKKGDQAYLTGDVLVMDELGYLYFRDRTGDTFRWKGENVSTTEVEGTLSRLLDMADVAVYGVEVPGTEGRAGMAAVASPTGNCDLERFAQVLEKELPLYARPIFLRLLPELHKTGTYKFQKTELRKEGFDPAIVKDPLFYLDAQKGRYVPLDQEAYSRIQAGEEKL

Molecular target: T1, full-length mEmerald tagged Plin5 (perilipin 5) (UniProt Q8BVZ1)
T1 sequence: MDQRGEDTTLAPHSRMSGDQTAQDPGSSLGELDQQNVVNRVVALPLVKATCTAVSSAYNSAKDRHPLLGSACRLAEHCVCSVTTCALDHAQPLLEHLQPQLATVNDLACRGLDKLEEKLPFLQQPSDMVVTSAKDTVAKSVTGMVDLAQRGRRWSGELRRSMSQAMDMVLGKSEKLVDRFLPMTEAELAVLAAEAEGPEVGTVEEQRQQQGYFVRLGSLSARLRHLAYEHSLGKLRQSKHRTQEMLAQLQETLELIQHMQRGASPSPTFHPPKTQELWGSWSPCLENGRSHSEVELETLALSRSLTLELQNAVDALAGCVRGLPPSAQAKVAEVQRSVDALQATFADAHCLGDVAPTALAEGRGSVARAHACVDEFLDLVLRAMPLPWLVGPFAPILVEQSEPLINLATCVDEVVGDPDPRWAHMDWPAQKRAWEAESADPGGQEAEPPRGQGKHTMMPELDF
Assay: co-IP

binding: binds
Substance: Fatp4 (ACSVL4), acyl-CoA synthetase (from UniProt Q6P1M0 1-643) (enzyme)
